{"source": "patent US12360111B2", "about": "“G protein-coupled receptor screening systems” (The University of North Carolina at Chapel Hill, priority 2018, dated 2025)", "test_system": "5-HT5A receptor fused to Gi, Gq or Gs", "test": "[35S]GTPγS loading at 5-HT5A receptor-Gα fusions", "assay_type": "biochemical", "settings": "Gi vs Gq vs Gs fusions", "note": "For at least one compound, name, drawing or mass did not settle the structure."}
{"smiles": "C[C@@H](CO)NC(=O)[C@@H]1C=C2c3cccc4[nH]cc(c34)C[C@H]2N(C)C1", "note": "[Ergometrine]", "values": [{"measurement": "G protein activation ([35S]GTPγS loading, in words)", "result": "only seen at the Gi fusion"}]}
